This is an account of results in PubChem BioAssay AID1487 (National Center for Advancing Translational Sciences (NCATS), 2009).

Where “and” joins values, the source holds several entries; their conditions need not be identical. Equal values may be shown once. The list shows a part of the results. Further columns of the screen follow, without active or inactive calls. Compounds called inactive in the main read-out are mostly missing here. Words in brackets tell the shape of the fitted curve; partial curves, single points and poor fits give uncertain potencies.

The test can be described thus: qHTS Assay for Modulators of Lamin A Splicing. To be noted: HeLa LMNA splicing GFP/RFP minigene ratio, 48 h. A digest of the protocol:
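S3 HeLa stable clones carrying a lamin A-EGFP splicing minigene plus DsRed2 were seeded at 600 cells/well in Opti-MEM with 2% FBS, pin-dosed and incubated 48 h at 37°C. Acumen cytometry (488 nm) gave the GFP/RFP total-intensity ratio.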
On the technique in general: In qHTS, concentration-response curves come from the screen itself.

The mark [1] stands for this setting: measured here: RFP viability control channel.
Setting [2] is: measured here: GFP splicing reporter channel.

As usually defined, the AC50 is the concentration at which the activity in the assay is half-maximal. As for `Cc1ccc2nc(SCC(=O)Nc3ccc(F)c([N+](=O)[O-])c3)[nH]c2c1`, the AC50 under setting [1] is 28.2 µM [rising, single point].
Still for that read-out and setting: the value for `CCN(CCn1cccn1)C(=O)c1cc(COc2c(F)cccc2F)on1` was 0.00562 µM [falling, full curve, poor fit].
Turning to `Cc1ccc(C)n1-n1c(C)nc2sc3c(c2c1=O)CCCCC3`, the AC50 under setting [2] was 14.1 µM [rising, single point] and the half-maximal activity concentration (AC50) under setting [1] was 14.1 µM [rising, single point].
Regarding `O=C1S/C(=C\c2ccc(O)c([N+](=O)[O-])c2)C(=O)N1Cc1cccc([N+](=O)[O-])c1`, the AC50 reads like this: under setting [2], 31.6 µM [rising, single point]; under setting [1], 7.08 µM [falling, partial curve, poor fit].
Regarding `CC(C)(C)C1CCC(=NNC(=O)c2cc(-c3ccccc3)n[nH]2)CC1` (stereo not given), under setting [1], the half-maximal activity concentration (AC50) is 6.31 µM [falling, partial curve].
For the compound `COc1ccc(CNc2ccnc(-c3ccc(N(C)C)cc3)n2)c(OC)c1`, the AC50 is 5.62 µM [falling, partial curve] under setting [2] and 8.91 µM [falling, partial curve] under setting [1].
On to `CCOC(=O)c1cnn(-c2ccccc2)c1NC(=O)c1ccccc1C`, for which the AC50 under setting [2] is 0.178 µM [rising, full curve, poor fit].
Regarding `COc1ccc(Cl)cc1NC(=O)C1CCN(c2ncnc3c2nc2n3CCCCC2)CC1`, the concentration at half-maximal activity (AC50) is 31.6 µM [falling, partial curve] under setting [2] and 20 µM [falling, single point] under setting [1].
As for `CCOC(=O)c1ccc(Nc2cc(C)nc(N3CCOCC3)n2)cc1`, the concentration at half-maximal activity (AC50) was 35.5 µM [falling, single point] under setting [2] and 35.5 µM [falling, single point] under setting [1].
For `O=C(Nc1cccc(C(F)(F)F)c1)C(Sc1ncnc2ccccc12)c1ccccc1` (stereo not given), under setting [1], the concentration at half-maximal activity (AC50) is 0.398 µM [rising, full curve, poor fit].
`CC(C)(C)c1ccc(OCCC(=O)Nc2cccc(S(=O)(=O)N3CCCCC3)c2)cc1`: the AC50 under setting [2] was 5.01 µM [rising, partial curve] and the concentration at half-maximal activity (AC50) under setting [1] is 12.6 µM [rising, partial curve].
`COc1ccc(C(c2c(O)cc(C)n(Cc3ccco3)c2=O)N2CCN(c3ccccc3)CC2)cc1` (stereo not given): the half-maximal activity concentration (AC50) under setting [1] is 0.0251 µM [falling, full curve, poor fit].
For `CC(C)CCNc1c(-c2cccs2)nc2ccccn12`, under setting [2], the AC50 is 1.58 µM [falling, partial curve, poor fit].
In the case of `O=[N+]([O-])c1ccc(N2CCCCC2)nc1`, the AC50 is, setting by setting: under setting [2], 15.8 µM [rising, partial curve, poor fit]; under setting [1], 17.8 µM [rising, partial curve].
For `O=C(Cc1ccccc1)NNc1c2ccccc2nc2ccccc12`, the AC50 under setting [1] was 10 µM [rising, partial curve].
Turning to `CC(=O)n1nc(-c2cccnc2)nc1NCc1cccs1`, the AC50 is 1.41 µM [falling, full curve, poor fit] under setting [2] and 2 µM [falling, full curve, poor fit] under setting [1].
As for `COc1ccc(CSC(=N)N)cc1[N+](=O)[O-]`, the AC50 under setting [1] was 35.5 µM [rising, single point].
With `COc1ccc(Cc2nc(C(=O)Nc3ccc(OC)cc3)cs2)cc1`, the AC50 under setting [1] is 15.8 µM [rising, partial curve].
On the same count and under the same terms, the value for `O=[N+]([O-])c1ccc(Sc2nnnn2-c2ccccc2)c(Cl)c1` was 11.2 µM [rising, single point]; that for `COc1ccccc1NC(=O)/C=C\C(=O)O` was 6.31 µM [falling, single point]; that for `CC(C)OCCCNC(=S)N1CCC(C(=O)c2ccc3c(c2)OCCO3)CC1` was 35.5 µM [falling, single point].
Same read-out and setting: the value for `CCC(c1nnnn1CCc1ccccc1)N(Cc1ccco1)Cc1cc2cc(C)cc(C)c2[nH]c1=O` (stereo not given) was 35.5 µM [rising, single point].
On to `O=C(NCCc1ccccc1F)C1CCCN1S(=O)(=O)c1ccccc1` (stereo not given), for which the concentration at half-maximal activity (AC50) under setting [2] is 35.5 µM [rising, single point].
In the case of `COc1cc(/C=N/Nc2ncc(C(F)(F)F)cc2Cl)cc(OC)c1O`, the AC50 under setting [1] is 15.8 µM [rising, single point].
On the same count and under the same terms, the result for `O=C1CC(N2CCC(c3nc4ccccc4s3)CC2)C(=O)N1Cc1ccccc1` (stereo not given) reads 22.4 µM [rising, single point].
`CCCc1nnc(SCC(=O)N2CCCCC2C)n1CCOC` (stereo not given): the AC50 under setting [2] is 0.708 µM [rising, full curve, poor fit].
As for `CCOc1ccc(OCC(O)CNC2CCN(Cc3ccccc3)CC2)cc1` (stereo not given), the AC50 under setting [1] is 35.5 µM [rising, single point].
The same measure, in the same setting: the result for `CCOc1cccc(C(=O)Nc2ccncc2)c1` reads 14.1 µM [rising, partial curve, poor fit].
For `O=C(Nc1cc(C(F)(F)F)ccc1N1CCOCC1)c1cccc(F)c1`, under setting [2], the AC50 is 22.4 µM [rising, single point].
Turning to `C=C1NC(=O)c2cc(CN(C)c3ccc(C(=O)N[C@@H](CCC(=O)O)C(=O)O)s3)ccc2N1`, the concentration at half-maximal activity (AC50) under setting [1] was 0.00891 µM [rising, full curve].
As to `O=C(OCC1OC(OC(=O)c2cc(O)c(O)c(OC(=O)c3cc(O)c(O)c(O)c3)c2)[C@@H](OC(=O)c2cc(O)c(O)c(OC(=O)c3cc(O)c(O)c(O)c3)c2)C(OC(=O)c2cc(O)c(O)c(OC(=O)c3cc(O)c(O)c(O)c3)c2)C1OC(=O)c1cc(O)c(O)c(OC(=O)c2cc(O)c(O)c(O)c2)c1)c1cc(O)c(O)c(OC(=O)c2cc(O)c(O)c(O)c2)c1` (stereo not given in full), the AC50 runs as follows: under setting [2], 2.24 µM [falling, partial curve]; under setting [1], 2 µM [falling, partial curve].
Consider `CN1CCN(C(CNC(=O)C(=O)Nc2ccc(F)cc2)c2cccnc2)CC1` (stereo not given), for which the half-maximal activity concentration (AC50) is 11.2 µM [falling, partial curve] under setting [2] and 15.8 µM [falling, partial curve, poor fit] under setting [1].
Regarding `CN1CCN(CCCN2c3ccccc3Sc3ccc(Cl)cc32)CC1`, the concentration at half-maximal activity (AC50) under setting [2] was 1.58 µM [rising, partial curve] and 1.78 µM [rising, partial curve, poor fit].
Take `COc1ccc(-c2nc(N)ncc2-c2csc(C)n2)c(O)c1OC`: under setting [1], the AC50 was 1.26 µM [rising, single point].
`CN1/C(=C\C(=O)c2ccco2)C(C)(C)c2ccccc21`: the AC50 by setting is: under setting [2], 35.5 µM [rising, single point]; under setting [1], 28.2 µM [rising, single point].
In the case of `Cc1cc(NC(=O)Cc2csc(-c3ccccc3)n2)ccc1Br`, the half-maximal activity concentration (AC50) under setting [1] was 22.4 µM [rising, single point].
The same measure, in the same setting: the result for `CN(Cc1ccccc1)C(=S)Nc1ccc(OC(F)F)cc1` reads 15.8 µM [rising, single point].
Still for that read-out and setting: the result for `c1ccc(CNc2nc(NCc3ccccc3)c3ccccc3n2)cc1` reads 12.6 µM [falling, partial curve].
Regarding `Cc1ccc(NS(=O)(=O)c2ccc(NC(=O)C3CCCO3)cc2)cc1` (stereo not given), the half-maximal activity concentration (AC50) under setting [1] is 12.6 µM [rising, partial curve].
For `CCc1ccc(CNC(=O)c2ccc3c(c2)nc2n3CCOC2)cc1`, the AC50 under setting [2] is 0.0282 µM [rising, full curve, poor fit].
With `O=C(NNC(=S)NC(=O)C12CC3CC(CC(C3)C1)C2)c1ccncc1`, under setting [1], the concentration at half-maximal activity (AC50) is 35.5 µM [rising, single point].
Still for that read-out and setting: the value for `CC1CCC(NC(=O)c2ccc3c(c2)N(Cc2cccc(F)c2)C(=O)c2ccccc2S3)CC1` (stereo not given) was 14.1 µM [rising, single point]; that for `CNC(=S)N1CCN(c2c(F)cc3c(=O)c(C(=O)O)cn(C4CC4)c3c2OC)CC1C` (stereo not given) was 4.47 µM [rising, partial curve, poor fit]; that for `CC(/C=C1\SC(=S)N(CC(=O)O)C1=O)=C\c1ccccc1` was 31.6 µM [rising, single point].
The same measure, in the same setting: the value for `O=C(Nc1ccc(C(F)(F)F)cc1)C1CCCN1S(=O)(=O)c1cccc2cccnc12` (stereo not given) was 8.91 µM [rising, partial curve, poor fit].
Turning to `O=C(NC(=O)c1ccccc1)OCCN1C(=O)c2ccccc2C1=O`, the AC50 under setting [2] is 0.0708 µM [rising, full curve, poor fit].
As to `O=C(c1ccc(S(=O)(=O)c2ccccc2)cc1)N1CCc2ccccc2C1`, under setting [1], the concentration at half-maximal activity (AC50) was 14.1 µM [rising, partial curve].
For `COc1ccc(NC(=O)c2oc3c(c2C)-c2nn(Cc4c(F)cccc4Cl)cc2CC3)c(OC)c1`, the half-maximal activity concentration (AC50) was 22.4 µM [rising, partial curve, poor fit] under setting [2] and 12.6 µM [rising, partial curve] under setting [1].
As to `CCOCCCNCc1ccc(OCc2ccccc2Cl)cc1`, the AC50 under setting [1] was 14.1 µM [rising, single point].
In the case of `CCCC(=O)O[C@H]1C[C@@H](C)N(C(=O)c2ccccc2)c2ccc(C)cc21`, the AC50 under setting [2] is 31.6 µM [rising, single point] and the AC50 under setting [1] was 35.5 µM [rising, single point].
Regarding `Cc1ccc(NC(=O)C(=O)NCC(c2cccnc2)N2CCN(C)CC2)cc1C` (stereo not given), the AC50 under setting [2] was 8.91 µM [falling, partial curve] and the concentration at half-maximal activity (AC50) under setting [1] was 1.78 µM [falling, full curve].
Consider `COc1ccc(NS(=O)(=O)c2ccc3nc(COc4ccc5ccccc5c4)[nH]c3c2)cc1`, for which the AC50 under setting [2] was 35.5 µM [falling, single point].
Turning to `O=C(CSc1nc(=O)[nH]c2c1CCCC2)Nc1cc(C(F)(F)F)ccc1Cl`, the concentration at half-maximal activity (AC50) is, setting by setting: under setting [2], 14.1 µM [falling, partial curve, poor fit]; under setting [1], 35.5 µM [falling, partial curve, poor fit].
Turning to `Cc1cc(C)n(-c2nnc(C)n2/N=C/c2cc(Br)ccc2OCc2ccccc2)n1`, the AC50 reads like this: under setting [2], 10 µM [rising, single point]; under setting [1], 11.2 µM [rising, single point].
